Results taken from US4703106A (Mitsubishi Petrochemical Co., Ltd., priority 1984, dated 1987).
*: point of attachment. Tos = Cc1ccc(S(=O)(=O)*)cc1; Boc = CC(C)(C)OC(=O)*; OBn = c1ccc(CO*)cc1; Bn = c1ccc(C*)cc1

Assay: general procedure: solution-phase peptide synthesis; WSC/HOBT; DCC/HOSU; active esters (OSU, ONP)
Details: coupling step

Going from “BOC-Glu(OBzl)-Leu-His-Lys[Cbz(o-Cl)]-Leu-Gln-Thr(Bzl)-Tyr(Bzl)-Pro-Arg(Tos)-Thr(Bzl)-Asp(OBzl)-Val-Gly-Ala-Gly-Thr(Bzl)-Pro-NH2” to Boc-AGT(Bn)P-NH2, the step yield falls from 73.3% to 62.4%.

First: Boc-T(Bn)Y(Bn)PR(Tos)T(Bn)D(OBn)VGAGT(Bn)P-NH2
Second: Boc-T(Bn)D(OBn)VGAGT(Bn)P-NH2
The step yield of the first is higher: 71.7% for the first, 65.5% for the second.

Going from “BOC-Lys(Cbz)-Leu-Ser(Bzl)-Gln-Glu(OBzl)-Leu-His-Lys[Cbz(o-Cl)]-Leu-Gln-Thr(Bzl)-Tyr(Bzl)-Pro-Arg(Tos)-Thr(Bzl)-Asp(OBzl)-Val-Gly-Ala-Gly-Thr(Bzl)-Pro-NH2” to Boc-D(OBn)VGAGT(Bn)P-NH2, the step yield rises from 69.8% to 80.9%.

Going from “BOC-Lys[Cbz(o-Cl)]-Leu-Gln-Thr(Bzl)-Tyr(Bzl)-Pro-Arg(Tos)-Thr(Bzl)-Asp(OBzl)-Val-Gly-Ala-Gly-Thr(Bzl)-Pro-NH2” to “AOC-Arg(Tos)-Thr(Bzl)-Asp(OBzl)-Val-Gly-Ala-Gly-Thr(Bzl)-Pro-NH2”, the step yield falls from 83.3% to 74.8%.

Going from Boc-VGAGT(Bn)P-NH2 to “Boc-QT(Bn)Y(Bn)PR(Tos)T(Bn)D(OBn)VGAGT(Bn)P-NH2”, the step yield rises from 71.2% to 88.5%.

Compared with “BOC-Leu-His-Lys[Cbz(o-Cl)]-Leu-Gln-Thr(Bzl)-Tyr(Bzl)-Pro-Arg(Tos)-Thr(Bzl)-Asp(OBzl)-Val-Gly-Ala-Gly-Thr(Bzl)-Pro-NH2”, “BOC-Gln-Glu(OBzl)-Leu-His-Lys[Cbz(o-Cl)]-Leu-Gln-Thr(Bzl)-Tyr(Bzl)-Pro-Arg(Tos)-Thr(Bzl)-Asp(OBzl)-Val-Gly-Ala-Gly-Thr(Bzl)-Pro-NH2” is higher in step yield: 92.1% for the first, 92.3% for the second.
